Results published in the supplement of paper PMC10849652.
This is one part of the list. Residues, ends and D or L forms follow the SMILES beside them. *: point of attachment. Cbz = O=C(OCc1ccccc1)*

Sequences of proteins named here, by UniProt entry; tags and fusion partners are left off. A change or cut given only in a name is not applied to a line headed by its entry.
UniProt O95716: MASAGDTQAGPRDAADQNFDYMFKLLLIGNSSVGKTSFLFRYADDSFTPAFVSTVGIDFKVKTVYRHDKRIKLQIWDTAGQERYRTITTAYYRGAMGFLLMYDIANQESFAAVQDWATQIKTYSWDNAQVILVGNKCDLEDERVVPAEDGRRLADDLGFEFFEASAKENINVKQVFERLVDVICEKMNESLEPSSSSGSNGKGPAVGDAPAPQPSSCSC
UniProt Q9BYM8: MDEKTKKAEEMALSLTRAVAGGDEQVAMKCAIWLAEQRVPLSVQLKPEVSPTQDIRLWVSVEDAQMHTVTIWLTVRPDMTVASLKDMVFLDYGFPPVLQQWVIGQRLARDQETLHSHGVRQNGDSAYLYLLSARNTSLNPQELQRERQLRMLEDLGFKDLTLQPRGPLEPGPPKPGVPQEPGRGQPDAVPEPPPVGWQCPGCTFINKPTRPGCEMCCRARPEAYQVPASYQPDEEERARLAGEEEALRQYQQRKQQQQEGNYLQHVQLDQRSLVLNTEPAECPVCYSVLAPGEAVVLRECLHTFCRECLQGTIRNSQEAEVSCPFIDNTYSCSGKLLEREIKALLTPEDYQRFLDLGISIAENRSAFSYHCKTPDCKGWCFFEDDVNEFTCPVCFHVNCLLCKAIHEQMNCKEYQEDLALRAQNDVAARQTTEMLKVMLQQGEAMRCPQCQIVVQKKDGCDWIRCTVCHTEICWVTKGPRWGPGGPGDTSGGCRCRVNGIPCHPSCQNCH
UniProt Q13905: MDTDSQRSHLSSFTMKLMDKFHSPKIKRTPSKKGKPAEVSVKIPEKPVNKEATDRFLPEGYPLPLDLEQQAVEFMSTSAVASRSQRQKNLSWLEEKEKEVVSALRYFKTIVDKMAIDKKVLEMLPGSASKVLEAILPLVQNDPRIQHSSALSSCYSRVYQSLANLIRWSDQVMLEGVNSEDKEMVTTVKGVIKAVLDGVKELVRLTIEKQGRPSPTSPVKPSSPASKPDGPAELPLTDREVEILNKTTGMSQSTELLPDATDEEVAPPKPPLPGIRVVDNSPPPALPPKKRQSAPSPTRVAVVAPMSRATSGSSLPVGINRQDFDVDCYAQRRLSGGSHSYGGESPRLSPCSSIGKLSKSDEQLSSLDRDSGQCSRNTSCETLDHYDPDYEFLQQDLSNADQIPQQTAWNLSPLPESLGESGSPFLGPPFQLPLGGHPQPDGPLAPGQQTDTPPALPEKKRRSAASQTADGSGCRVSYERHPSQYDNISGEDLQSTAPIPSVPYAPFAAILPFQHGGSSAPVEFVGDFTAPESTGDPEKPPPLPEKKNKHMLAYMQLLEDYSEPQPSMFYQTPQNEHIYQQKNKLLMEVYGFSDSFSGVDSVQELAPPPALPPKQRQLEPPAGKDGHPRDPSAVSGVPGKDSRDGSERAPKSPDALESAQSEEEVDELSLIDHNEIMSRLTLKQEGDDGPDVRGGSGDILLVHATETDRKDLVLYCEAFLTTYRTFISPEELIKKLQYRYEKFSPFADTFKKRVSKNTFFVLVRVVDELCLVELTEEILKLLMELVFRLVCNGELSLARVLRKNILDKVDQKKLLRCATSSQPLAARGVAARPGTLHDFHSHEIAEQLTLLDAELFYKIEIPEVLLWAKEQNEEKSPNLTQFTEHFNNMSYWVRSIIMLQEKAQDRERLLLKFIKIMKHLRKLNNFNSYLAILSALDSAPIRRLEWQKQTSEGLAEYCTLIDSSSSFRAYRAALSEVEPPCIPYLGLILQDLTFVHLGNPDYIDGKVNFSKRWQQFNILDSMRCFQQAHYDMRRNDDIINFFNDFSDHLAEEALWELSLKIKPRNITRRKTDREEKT
UniProt P20337: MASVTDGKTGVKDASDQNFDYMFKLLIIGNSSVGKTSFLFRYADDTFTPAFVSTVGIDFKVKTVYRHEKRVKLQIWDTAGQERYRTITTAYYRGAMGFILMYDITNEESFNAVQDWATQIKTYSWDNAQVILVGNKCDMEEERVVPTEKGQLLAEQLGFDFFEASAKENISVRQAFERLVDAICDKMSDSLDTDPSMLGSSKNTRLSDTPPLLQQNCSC
UniProt Q09028, whole entry, looked up: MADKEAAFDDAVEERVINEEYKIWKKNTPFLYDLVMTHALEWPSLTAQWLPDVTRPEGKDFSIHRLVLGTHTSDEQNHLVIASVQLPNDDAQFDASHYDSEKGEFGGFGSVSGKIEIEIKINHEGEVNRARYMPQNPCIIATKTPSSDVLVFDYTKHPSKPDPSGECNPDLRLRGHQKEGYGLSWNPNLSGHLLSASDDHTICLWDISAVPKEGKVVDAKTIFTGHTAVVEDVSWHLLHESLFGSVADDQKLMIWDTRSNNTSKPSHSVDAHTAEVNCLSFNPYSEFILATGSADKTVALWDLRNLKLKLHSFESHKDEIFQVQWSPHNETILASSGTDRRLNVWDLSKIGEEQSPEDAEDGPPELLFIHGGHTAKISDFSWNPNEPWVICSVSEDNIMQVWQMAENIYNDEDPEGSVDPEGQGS
UniProt O75771: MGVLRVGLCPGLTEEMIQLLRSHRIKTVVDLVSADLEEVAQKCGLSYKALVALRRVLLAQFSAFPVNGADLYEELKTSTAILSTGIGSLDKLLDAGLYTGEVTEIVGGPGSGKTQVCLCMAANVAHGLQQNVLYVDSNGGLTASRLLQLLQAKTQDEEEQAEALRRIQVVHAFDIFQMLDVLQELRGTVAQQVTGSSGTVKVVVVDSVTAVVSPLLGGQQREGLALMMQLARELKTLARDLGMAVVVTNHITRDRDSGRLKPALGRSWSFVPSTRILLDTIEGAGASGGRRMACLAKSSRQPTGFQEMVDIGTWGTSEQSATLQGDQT
UniProt A4D1S5: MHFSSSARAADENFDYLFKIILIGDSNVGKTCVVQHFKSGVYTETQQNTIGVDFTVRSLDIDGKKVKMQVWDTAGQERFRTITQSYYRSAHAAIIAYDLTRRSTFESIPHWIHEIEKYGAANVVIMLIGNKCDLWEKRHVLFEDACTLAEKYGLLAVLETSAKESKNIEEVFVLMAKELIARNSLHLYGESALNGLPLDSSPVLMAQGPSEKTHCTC
UniProt P54725: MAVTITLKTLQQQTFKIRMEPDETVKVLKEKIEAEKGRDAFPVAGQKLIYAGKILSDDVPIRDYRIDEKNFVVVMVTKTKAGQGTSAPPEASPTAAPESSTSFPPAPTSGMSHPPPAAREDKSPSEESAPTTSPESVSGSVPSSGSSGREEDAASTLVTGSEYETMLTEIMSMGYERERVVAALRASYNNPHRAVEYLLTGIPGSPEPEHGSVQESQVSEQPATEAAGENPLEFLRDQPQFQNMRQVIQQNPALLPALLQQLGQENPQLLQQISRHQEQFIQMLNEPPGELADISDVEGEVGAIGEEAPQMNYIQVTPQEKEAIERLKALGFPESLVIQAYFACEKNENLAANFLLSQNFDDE
UniProt O75943: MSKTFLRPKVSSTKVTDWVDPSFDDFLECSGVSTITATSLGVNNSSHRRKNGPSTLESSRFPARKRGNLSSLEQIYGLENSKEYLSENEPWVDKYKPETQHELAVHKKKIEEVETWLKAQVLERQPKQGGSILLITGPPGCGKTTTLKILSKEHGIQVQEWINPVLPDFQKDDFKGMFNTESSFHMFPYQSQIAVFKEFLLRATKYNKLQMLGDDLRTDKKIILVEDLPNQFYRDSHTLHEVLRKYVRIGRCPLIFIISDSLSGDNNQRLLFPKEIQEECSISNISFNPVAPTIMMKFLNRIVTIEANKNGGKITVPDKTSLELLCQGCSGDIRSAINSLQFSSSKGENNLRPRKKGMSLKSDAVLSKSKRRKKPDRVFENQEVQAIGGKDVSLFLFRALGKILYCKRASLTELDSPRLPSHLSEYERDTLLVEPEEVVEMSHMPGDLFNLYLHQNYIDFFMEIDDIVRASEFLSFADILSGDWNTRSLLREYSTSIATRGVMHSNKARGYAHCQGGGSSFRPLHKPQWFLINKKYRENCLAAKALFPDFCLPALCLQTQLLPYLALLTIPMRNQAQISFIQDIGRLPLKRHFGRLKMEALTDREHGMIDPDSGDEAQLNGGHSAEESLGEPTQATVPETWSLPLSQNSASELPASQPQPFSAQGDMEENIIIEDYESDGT
UniProt Q15311: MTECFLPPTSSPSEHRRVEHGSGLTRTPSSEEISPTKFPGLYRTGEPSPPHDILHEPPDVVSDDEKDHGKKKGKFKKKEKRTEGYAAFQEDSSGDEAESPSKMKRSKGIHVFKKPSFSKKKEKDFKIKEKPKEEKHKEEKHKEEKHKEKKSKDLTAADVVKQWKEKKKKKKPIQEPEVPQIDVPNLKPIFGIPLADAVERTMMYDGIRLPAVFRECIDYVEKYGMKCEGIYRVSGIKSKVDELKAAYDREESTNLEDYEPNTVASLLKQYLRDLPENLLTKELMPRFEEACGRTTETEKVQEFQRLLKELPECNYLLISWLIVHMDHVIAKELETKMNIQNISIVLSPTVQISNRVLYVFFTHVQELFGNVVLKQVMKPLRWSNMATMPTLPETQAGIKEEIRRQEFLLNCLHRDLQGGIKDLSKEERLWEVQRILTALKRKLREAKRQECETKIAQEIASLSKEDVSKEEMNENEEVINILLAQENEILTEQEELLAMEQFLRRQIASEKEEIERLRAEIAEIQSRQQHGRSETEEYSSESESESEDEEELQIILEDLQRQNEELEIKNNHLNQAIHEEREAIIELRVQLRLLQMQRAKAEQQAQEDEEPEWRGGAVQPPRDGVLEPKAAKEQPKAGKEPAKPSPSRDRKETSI
UniProt Q7Z5J4: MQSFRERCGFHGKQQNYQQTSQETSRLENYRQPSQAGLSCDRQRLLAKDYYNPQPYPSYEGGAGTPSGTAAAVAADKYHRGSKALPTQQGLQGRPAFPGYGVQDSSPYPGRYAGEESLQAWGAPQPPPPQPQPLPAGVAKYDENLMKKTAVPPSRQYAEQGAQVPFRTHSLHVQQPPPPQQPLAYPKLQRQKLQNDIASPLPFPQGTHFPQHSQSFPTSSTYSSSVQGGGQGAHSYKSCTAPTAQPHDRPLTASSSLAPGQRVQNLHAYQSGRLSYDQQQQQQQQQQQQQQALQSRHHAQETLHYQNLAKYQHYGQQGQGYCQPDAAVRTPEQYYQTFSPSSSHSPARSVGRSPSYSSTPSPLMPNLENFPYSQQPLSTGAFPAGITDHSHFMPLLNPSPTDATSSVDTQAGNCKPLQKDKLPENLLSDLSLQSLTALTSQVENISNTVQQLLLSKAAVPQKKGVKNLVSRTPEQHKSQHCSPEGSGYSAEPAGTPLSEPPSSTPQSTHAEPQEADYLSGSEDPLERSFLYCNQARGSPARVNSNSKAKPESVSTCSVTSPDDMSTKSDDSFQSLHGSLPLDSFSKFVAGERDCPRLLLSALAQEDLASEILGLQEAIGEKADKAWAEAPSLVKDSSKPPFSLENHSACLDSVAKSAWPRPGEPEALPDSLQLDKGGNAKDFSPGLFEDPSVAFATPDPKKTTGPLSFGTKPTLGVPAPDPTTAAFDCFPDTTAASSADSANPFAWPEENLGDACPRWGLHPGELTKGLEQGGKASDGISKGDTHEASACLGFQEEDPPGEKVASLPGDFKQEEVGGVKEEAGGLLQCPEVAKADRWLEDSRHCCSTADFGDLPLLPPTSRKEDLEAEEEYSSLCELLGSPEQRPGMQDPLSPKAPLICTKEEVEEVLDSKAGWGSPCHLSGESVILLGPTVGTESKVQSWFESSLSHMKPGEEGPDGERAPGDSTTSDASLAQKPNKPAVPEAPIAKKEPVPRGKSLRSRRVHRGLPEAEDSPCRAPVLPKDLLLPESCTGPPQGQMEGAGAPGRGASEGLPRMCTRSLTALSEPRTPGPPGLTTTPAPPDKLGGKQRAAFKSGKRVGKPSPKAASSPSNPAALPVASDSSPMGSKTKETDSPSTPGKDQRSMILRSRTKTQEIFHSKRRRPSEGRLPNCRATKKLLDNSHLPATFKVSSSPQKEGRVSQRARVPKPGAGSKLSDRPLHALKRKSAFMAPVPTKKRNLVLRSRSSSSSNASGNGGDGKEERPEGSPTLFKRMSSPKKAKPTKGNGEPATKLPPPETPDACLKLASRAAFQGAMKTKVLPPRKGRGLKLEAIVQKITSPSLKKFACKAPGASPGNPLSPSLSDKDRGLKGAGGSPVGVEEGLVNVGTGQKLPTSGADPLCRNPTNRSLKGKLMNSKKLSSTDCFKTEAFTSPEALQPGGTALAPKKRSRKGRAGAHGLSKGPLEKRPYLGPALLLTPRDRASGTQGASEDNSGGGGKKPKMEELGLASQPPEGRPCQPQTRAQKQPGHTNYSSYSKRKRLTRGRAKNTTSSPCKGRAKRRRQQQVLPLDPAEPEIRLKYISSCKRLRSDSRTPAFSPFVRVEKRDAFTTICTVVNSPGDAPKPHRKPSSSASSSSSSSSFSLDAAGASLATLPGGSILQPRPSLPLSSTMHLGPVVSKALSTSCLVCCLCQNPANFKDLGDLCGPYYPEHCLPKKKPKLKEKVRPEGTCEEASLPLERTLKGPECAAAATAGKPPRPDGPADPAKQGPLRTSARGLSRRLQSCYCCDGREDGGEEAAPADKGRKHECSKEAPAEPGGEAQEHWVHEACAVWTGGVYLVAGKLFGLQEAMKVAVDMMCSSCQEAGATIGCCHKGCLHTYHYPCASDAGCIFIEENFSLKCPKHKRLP

Columns and labels:
Test in all cases: log2 fold change, soluble protein after heating vs DMSO (PISA); higher = thermal stabilisation; K562 cells, 10 uM, 30 min; active = over 0.2 and 3.5 SD of the protein, either way, in both replicates (recomputed)
erlotinib = compound: C#Cc1cccc(Nc2ncnc3cc(OCCOC)c(OCCOC)cc23)c1 [erlotinib]
Summary of the method: (§1)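 K562 cells at 2×10^6 cells/mL were treated for 30 min with 10 μM compound, and aliquots were heated for 3 min over 48°C-58°C before pooling. Extraction used PBS with 0.5% NP-40 at 4°C, and soluble protein was the supernatant after 21,000xg for 90 min, measured by TMTpro 16plex LC-MS/MS with channel sums equalised. Thermal stability values, relative to control samples and from duplicates, are log2 fold changes.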

[1] = compound: C1=CC(=C(C=C1Cl)C2=NC3=NC=CN=C3C(=N2)NC4=CC=NC=C4)F
Summary of the method: as §1

[2] = compound: C1=CC(=CC=C1C2=NC3=C(N2)C=C(C=C3)C(=O)N)OC4=CC=C(C=C4)Cl
Summary of the method: as §1

[3] = compound: C1=CC2=NC=CN=C2C=C1/C=C/3\C(=O)NC(=O)S3
Summary of the method: as §1

[4] = compound: C1=CC=C(C=C1)C2=NC(=C(N2)C3=CC=NC=C3)C4=CC(=C(C=C4)Cl)O
Summary of the method: as §1

ibrutinib = compound: C=CC(=O)N1CCC[C@@H](n2nc(-c3ccc(Oc4ccccc4)cc3)c3c(N)ncnc32)C1 [ibrutinib]
Summary of the method: as §1

ralimetinib = compound: CC(C)(C)Cn1c(N)nc2ccc(-c3[nH]c(C(C)(C)C)nc3-c3ccc(F)cc3)nc21 [ralimetinib]
Summary of the method: as §1

[5] = compound: CC(C)(O)CC(=O)NCCn1ccc2ncnc(Nc3ccc(Oc4cccc(C(F)(F)F)c4)c(Cl)c3)c21
Summary of the method: as §1

[6] = compound: CC(C)C1=C2N=C(C=C(N2N=C1)NCC3=CC=CC=C3)NCCCCCCN
Summary of the method: as §1

[7] = compound: CC(C)C[C@@H](C=O)NC(=O)[C@H](CC(C)C)NC(=O)[C@H](CC(C)C)NC(=O)OCc1ccccc1
Summary of the method: as §1

[8] = compound: C/C(=N\NC(=O)C1=CC(=CC=C1)S(=O)(=O)N2CCOCC2)/C3=C(C=CC(=C3)Cl)O
Summary of the method: as §1

[9] = compound: C1=CC2=C(C=CC(=C2)/C=C\3/C(=O)NC(=NCC4=CC=CS4)S3)N=C1
Summary of the method: as §1

[10] = compound: C1=CC=C2C(=C1)C3=NNC4=CC=CC(=C43)C2=O
Summary of the method: as §1

IRAK-1-4 Inhibitor I = compound: C1COCCN1CCN2C3=CC=CC=C3N=C2NC(=O)C4=CC(=CC=C4)[N+](=O)[O-] [IRAK-1-4 Inhibitor I]
Summary of the method: as §1

[11] = compound: CC(=O)c1cnc2ccc(-c3cc(Cl)c(O)c(Cl)c3)nc2c1N[C@H]1CC[C@H](CN(C)C)CC1
Summary of the method: as §1

pinometostat = compound: CC(C)N(C[C@H]1O[C@@H](n2cnc3c(N)ncnc32)[C@H](O)[C@@H]1O)[C@H]1C[C@@H](CCc2nc3cc(C(C)(C)C)ccc3[nH]2)C1 [pinometostat]
Summary of the method: as §1

[12] = compound: C1CCN(C1)C(=O)NC2=CC=CC(=C2)NC3=NC=C(C(=N3)NCCC4=CN=CN4)Br
Summary of the method: as §1

[13] = compound: C1CN(CCC1(CC2=CC=C(C=C2)Cl)N)C3=NC=NC4=C3C=CN4
Summary of the method: as §1

[14] = compound: CC1=C(C2=C(C=C1)C(=O)C3=CC=CC=C3N2CCCN)C
Summary of the method: as §1

[15] = compound: CC1=C(C(CC(=O)N1)C2=CC=C(C=C2)C(F)(F)F)C(=O)NC3=C(C=C4C(=C3)C=NN4)F
Summary of the method: as §1

Measured: log2 fold change

RBM23 (UniProt Q86U06)
inactive: erlotinib -0.163 | [1] -0.05 | [2] 0.19 | [3] 0.024 | [4] -0.179 | ibrutinib 0.147 | ralimetinib -0.029 | [5] -0.271 | [6] -0.239 | [7] 0.123

RAB28 (UniProt P51157)
inactive: erlotinib 0.197 | [8] -0.167 | [2] 0.02 | [9] 0.118 | [4] 0 | [10] 0.043 | IRAK-1-4 Inhibitor I -0.044 | [11] 0.012 | ralimetinib -0.137 | [6] 0.114 | [7] 0.086 | pinometostat 0.028

RAB3D (UniProt O95716)
inactive: erlotinib -0.094 | [8] 0.036 | [2] -0.141 | [9] -0.055 | [3] 0.006 | [4] -0.145 | [10] -0.058 | [12] 0.007 | [13] 0.036 | ibrutinib -0.096 | [11] -0.02 | ralimetinib 0.133 | [6] 0.121 | [14] -0.104
active: [7] -0.605

RANBP6 (UniProt O60518)
inactive: [4] -0.073 | IRAK-1-4 Inhibitor I -0.265 | ralimetinib 0.009 | [7] -0.107 | pinometostat 0.104

RASA1 (UniProt P20936)
inactive: erlotinib 0.116 | [8] 0.305 | [1] -0.056 | [2] -0.094 | [9] -0.659 | [4] 0.05 | [10] 0.201 | [12] 0.082 | [13] -0.074 | IRAK-1-4 Inhibitor I -0.076 | [11] 0.085 | ralimetinib 0.033 | [5] 0.023 | [6] -0.016 | [7] 0.063 | pinometostat 0.124 | [15] -0.1 | [14] -0.152

RAB18 (UniProt H0Y6T8)
inactive: [3] 0.128 | [12] 0.185 | [13] 0.186 | IRAK-1-4 Inhibitor I -0.084 | ibrutinib -0.149 | pinometostat 0.005 | [15] 0.045 | [14] -0.038

RBCK1 (UniProt Q9BYM8)
inactive: erlotinib 0.026 | [8] 0.116 | [1] 0.059 | [2] 0.034 | [9] 0.123 | [10] 0.04 | [12] -0.057 | [13] -0.029 | [11] -0.064 | [5] -0.111 | [6] 0.03 | [14] 0.127

RBM26 isoform 3 (UniProt Q5T8P6)
inactive: [8] 0.22 | [9] -0.079 | [10] -0.149 | [11] -0.528

RAPGEF1 isoform 3 (UniProt Q13905)
inactive: [3] 0.024 | ibrutinib 0.052

RAB27B (UniProt O00194)
inactive: erlotinib -0.007 | [8] 0.092 | [2] 0.031 | [9] -0.079 | [3] 0.087 | [4] 0.083 | [10] 0.031 | [12] -0.182 | [13] 0.011 | IRAK-1-4 Inhibitor I 0.142 | ibrutinib 0.023 | [11] 0.047 | ralimetinib -0.001 | [6] 0.054 | [7] 0.106 | pinometostat -0.02 | [15] -0.018 | [14] 0.027

RAPGEF5, A0A590UJR0
inactive: erlotinib 0.534 | [8] -0.628 | [2] -0.178 | [9] 0.476 | [3] -0.016 | [4] -0.032 | [10] 0.211 | [12] 0.168 | [13] -0.031 | IRAK-1-4 Inhibitor I 0.04 | ibrutinib -0.031 | [11] -0.025 | ralimetinib -0.156 | [6] 0.155 | [7] -0.083 | pinometostat -0.146 | [15] -0.07 | [14] 0.068

RABEP2 (UniProt Q9H5N1)
inactive: erlotinib 0.069 | [2] 0.022 | [4] 0.061 | ralimetinib -0.07 | [6] -0.095 | [7] 0.136

Copied from the results shown (8 entries):
RAB28 (UniProt P51157)
inactive: erlotinib 0.197 | [8] -0.167 | [2] 0.02 | [9] 0.118 | [4] 0 | [10] 0.043 | IRAK-1-4 Inhibitor I -0.044 | [11] 0.012 | ralimetinib -0.137 | [6] 0.114 | [7] 0.086 | pinometostat 0.028

RAB3D (UniProt O95716)
inactive: erlotinib -0.094 | [8] 0.036 | [2] -0.141 | [9] -0.055 | [3] 0.006 | [4] -0.145 | [10] -0.058 | [12] 0.007 | [13] 0.036 | ibrutinib -0.096 | [11] -0.02 | ralimetinib 0.133 | [6] 0.121 | [14] -0.104
active: [7] -0.605

RANBP6 (UniProt O60518)
inactive: [4] -0.073 | IRAK-1-4 Inhibitor I -0.265 | ralimetinib 0.009 | [7] -0.107 | pinometostat 0.104

RASA1 (UniProt P20936)
inactive: erlotinib 0.116 | [8] 0.305 | [1] -0.056 | [2] -0.094 | [9] -0.659 | [4] 0.05 | [10] 0.201 | [12] 0.082 | [13] -0.074 | IRAK-1-4 Inhibitor I -0.076 | [11] 0.085 | ralimetinib 0.033 | [5] 0.023 | [6] -0.016 | [7] 0.063 | pinometostat 0.124 | [15] -0.1 | [14] -0.152

RAB18 (UniProt H0Y6T8)
inactive: [3] 0.128 | [12] 0.185 | [13] 0.186 | IRAK-1-4 Inhibitor I -0.084 | ibrutinib -0.149 | pinometostat 0.005 | [15] 0.045 | [14] -0.038

RBCK1 (UniProt Q9BYM8)
inactive: erlotinib 0.026 | [8] 0.116 | [1] 0.059 | [2] 0.034 | [9] 0.123 | [10] 0.04 | [12] -0.057 | [13] -0.029 | [11] -0.064 | [5] -0.111 | [6] 0.03 | [14] 0.127

RBM26 isoform 3 (UniProt Q5T8P6)
inactive: [8] 0.22 | [9] -0.079 | [10] -0.149 | [11] -0.528

RAPGEF1 isoform 3 (UniProt Q13905)
inactive: [3] 0.024 | ibrutinib 0.052

The list continues.

RASSF1 (UniProt Q9NS23)
inactive: [4] -0.024 | ralimetinib 0.042 | [7] 0.154

RAD50, A0A494C0Y7
inactive: [8] -0.029 | [9] 0.049 | [3] -0.077 | [4] -0.111 | [10] 0.048 | [12] -0.033 | [13] 0.143 | IRAK-1-4 Inhibitor I 0.015 | ibrutinib 0.072 | [11] -0.037 | ralimetinib -0.085 | [7] 0.196 | pinometostat 0.015 | [14] 0.051

RAB3B (UniProt P20337)
inactive: erlotinib 0 | [2] 0.073 | [4] -0.161 | [12] -0.078 | [13] -0.089 | ralimetinib -0.137 | [6] -0.102 | [7] 0.187 | [14] -0.011

RASA2 (UniProt Q15283)
inactive: [8] -0.401 | [1] -0.011 | [9] 0.374 | [3] -0.118 | [4] -0.628 | [10] -0.229 | IRAK-1-4 Inhibitor I 0.053 | ibrutinib -0.266 | [11] -0.244 | ralimetinib -0.396 | [5] -0.008 | [7] 0.327 | pinometostat 0.072

RBBP4 isoform 2 (UniProt Q09028)
inactive: erlotinib 0.003 | [8] -0.111 | [2] 0.031 | [9] 0.013 | [3] 0.007 | [10] 0.068 | ibrutinib 0.031 | [11] 0.02 | [6] 0.123

RAD51D (UniProt O75771)
inactive: erlotinib -0.023 | [8] 0.055 | [2] -0.025 | [9] -0.054 | [3] 0.102 | [4] 0.287 | [10] -0.074 | [12] 0.029 | [13] -0.031 | IRAK-1-4 Inhibitor I -0.007 | ibrutinib -0.077 | [11] -0.304 | ralimetinib -0.248 | [6] 0.017 | [7] -0.071 | pinometostat 0.07 | [15] 0.182 | [14] 0.019

RBKS (UniProt Q9H477)
inactive: [8] -0.311 | [9] 0.027 | [4] -0.034 | [10] 0.363 | [11] -0.091 | ralimetinib -0.195 | [7] -0.109

RBL1 (UniProt P28749)
inactive: erlotinib 0.215 | [2] -0.149 | [3] 0.054 | ibrutinib 0.073 | [6] 0.145 | [15] -0.073

RAB19 isoform 2 (UniProt A4D1S5)
inactive: [1] 0.331 | [3] 0.099 | IRAK-1-4 Inhibitor I -0.051 | ibrutinib 0.14 | [5] -0.057 | pinometostat 0.002

RAD23A isoform 3 (UniProt P54725)
inactive: [15] -0.155

RAD17 (UniProt O75943)
inactive: [12] 0.035 | [13] -0.086 | IRAK-1-4 Inhibitor I -0.124 | pinometostat 0.222 | [14] -0.053

RANBP3 isoform 2 (UniProt Q9H6Z4)
inactive: erlotinib 0.095 | [2] 0.061 | [3] 0.121 | [12] 0.042 | [13] 0.158 | ibrutinib -0.007 | [6] 0.067 | [15] -0.003 | [14] -0.059

RALBP1 (UniProt Q15311)
inactive: [8] -0.045 | [1] -0.216 | [9] 0.012 | [10] -0.007 | [12] 0.253 | [13] -0.119 | IRAK-1-4 Inhibitor I -0.23 | [11] -0.236 | [5] 0.102 | pinometostat 0.086 | [14] -0.087

RAI1 (UniProt Q7Z5J4)
inactive: erlotinib 0.139 | [1] -0.672 | [2] -0.156 | [3] -0.065 | [4] -0.773 | ibrutinib 0.1 | ralimetinib -0.278 | [5] 0.105 | [6] -0.465 | [7] -0.061 | [15] -0.191
